Source: publication PMC11613746
Results are given in words; binding and its absence hold for the method and conditions named. Binding seen in cells or lysates may run through a third protein. A yes stands for co-enrichment or nearness to the bait. Other partners may have been found.

The chains behind the UniProt entries cited, without tags or fusion partners.
UniProt Q9H4L4: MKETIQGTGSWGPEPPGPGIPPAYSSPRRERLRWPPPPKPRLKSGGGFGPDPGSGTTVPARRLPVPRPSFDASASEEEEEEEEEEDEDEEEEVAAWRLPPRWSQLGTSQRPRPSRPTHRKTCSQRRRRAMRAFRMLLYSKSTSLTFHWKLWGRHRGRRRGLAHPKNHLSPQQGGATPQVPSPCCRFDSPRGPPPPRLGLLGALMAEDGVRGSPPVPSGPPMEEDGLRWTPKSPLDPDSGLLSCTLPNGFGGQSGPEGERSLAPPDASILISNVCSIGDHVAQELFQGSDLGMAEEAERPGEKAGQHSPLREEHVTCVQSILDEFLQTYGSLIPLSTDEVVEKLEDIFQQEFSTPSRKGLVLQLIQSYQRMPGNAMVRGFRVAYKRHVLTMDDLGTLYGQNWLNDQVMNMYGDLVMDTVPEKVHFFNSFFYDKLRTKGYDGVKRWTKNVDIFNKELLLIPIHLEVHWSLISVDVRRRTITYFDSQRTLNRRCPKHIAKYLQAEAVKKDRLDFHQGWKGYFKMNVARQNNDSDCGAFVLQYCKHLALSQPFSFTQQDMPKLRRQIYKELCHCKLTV

Target: T1, Sine oculis homeobox homolog 1 (SIX1), endogenous (human (endogenous in 22Rv1, LNCaP, PC3)) (UniProt Q15475)
T1 sequence: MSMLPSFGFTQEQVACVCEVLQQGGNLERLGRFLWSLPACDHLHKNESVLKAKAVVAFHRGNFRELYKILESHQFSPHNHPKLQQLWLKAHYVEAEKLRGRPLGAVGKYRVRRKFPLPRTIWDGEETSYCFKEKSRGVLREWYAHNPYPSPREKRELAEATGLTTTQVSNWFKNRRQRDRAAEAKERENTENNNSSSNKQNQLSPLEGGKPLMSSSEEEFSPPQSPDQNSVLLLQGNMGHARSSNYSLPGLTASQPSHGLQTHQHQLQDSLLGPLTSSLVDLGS
Experiment: affinity purification with mass spectrometry; endogenous SIX1 and control IgG immunoprecipitation from PC3 whole-cell lysate, SDS-PAGE, silver staining, LC-MS/MS

binding: binds
Substance: Sentrin/SUMO-specific protease 3 (SENP3), endogenous (from UniProt Q9H4L4 1-574) (enzyme)
